Measured values as given in the supplement of paper PMC10849652.
Some of the results follow.

Chains of the proteins cited; added tags and fusions are not shown. Lines headed by an entry give the natural chain unless they say otherwise; changes in a name come on top.
UniProt A6NHQ2: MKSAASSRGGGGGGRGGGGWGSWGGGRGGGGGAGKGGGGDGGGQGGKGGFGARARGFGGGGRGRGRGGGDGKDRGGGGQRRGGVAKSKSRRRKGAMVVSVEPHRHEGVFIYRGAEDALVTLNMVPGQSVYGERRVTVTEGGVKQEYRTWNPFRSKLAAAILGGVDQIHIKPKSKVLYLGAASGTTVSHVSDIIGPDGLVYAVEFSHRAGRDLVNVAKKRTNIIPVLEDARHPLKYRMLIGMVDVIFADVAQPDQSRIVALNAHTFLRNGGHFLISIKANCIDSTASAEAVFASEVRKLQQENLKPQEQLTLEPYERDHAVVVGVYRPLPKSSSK
UniProt P22830: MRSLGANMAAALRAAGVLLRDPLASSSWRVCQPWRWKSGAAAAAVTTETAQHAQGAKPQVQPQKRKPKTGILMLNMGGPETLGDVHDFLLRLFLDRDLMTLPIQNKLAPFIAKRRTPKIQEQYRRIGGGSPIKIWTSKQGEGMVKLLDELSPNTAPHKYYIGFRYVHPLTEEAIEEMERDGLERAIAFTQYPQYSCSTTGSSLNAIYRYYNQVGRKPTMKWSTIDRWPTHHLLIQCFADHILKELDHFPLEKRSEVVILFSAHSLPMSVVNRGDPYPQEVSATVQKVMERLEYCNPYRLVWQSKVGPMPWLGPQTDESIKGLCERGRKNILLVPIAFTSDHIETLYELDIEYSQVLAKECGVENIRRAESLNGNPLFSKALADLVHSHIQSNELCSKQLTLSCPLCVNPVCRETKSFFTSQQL
UniProt P49327, whole entry, looked up: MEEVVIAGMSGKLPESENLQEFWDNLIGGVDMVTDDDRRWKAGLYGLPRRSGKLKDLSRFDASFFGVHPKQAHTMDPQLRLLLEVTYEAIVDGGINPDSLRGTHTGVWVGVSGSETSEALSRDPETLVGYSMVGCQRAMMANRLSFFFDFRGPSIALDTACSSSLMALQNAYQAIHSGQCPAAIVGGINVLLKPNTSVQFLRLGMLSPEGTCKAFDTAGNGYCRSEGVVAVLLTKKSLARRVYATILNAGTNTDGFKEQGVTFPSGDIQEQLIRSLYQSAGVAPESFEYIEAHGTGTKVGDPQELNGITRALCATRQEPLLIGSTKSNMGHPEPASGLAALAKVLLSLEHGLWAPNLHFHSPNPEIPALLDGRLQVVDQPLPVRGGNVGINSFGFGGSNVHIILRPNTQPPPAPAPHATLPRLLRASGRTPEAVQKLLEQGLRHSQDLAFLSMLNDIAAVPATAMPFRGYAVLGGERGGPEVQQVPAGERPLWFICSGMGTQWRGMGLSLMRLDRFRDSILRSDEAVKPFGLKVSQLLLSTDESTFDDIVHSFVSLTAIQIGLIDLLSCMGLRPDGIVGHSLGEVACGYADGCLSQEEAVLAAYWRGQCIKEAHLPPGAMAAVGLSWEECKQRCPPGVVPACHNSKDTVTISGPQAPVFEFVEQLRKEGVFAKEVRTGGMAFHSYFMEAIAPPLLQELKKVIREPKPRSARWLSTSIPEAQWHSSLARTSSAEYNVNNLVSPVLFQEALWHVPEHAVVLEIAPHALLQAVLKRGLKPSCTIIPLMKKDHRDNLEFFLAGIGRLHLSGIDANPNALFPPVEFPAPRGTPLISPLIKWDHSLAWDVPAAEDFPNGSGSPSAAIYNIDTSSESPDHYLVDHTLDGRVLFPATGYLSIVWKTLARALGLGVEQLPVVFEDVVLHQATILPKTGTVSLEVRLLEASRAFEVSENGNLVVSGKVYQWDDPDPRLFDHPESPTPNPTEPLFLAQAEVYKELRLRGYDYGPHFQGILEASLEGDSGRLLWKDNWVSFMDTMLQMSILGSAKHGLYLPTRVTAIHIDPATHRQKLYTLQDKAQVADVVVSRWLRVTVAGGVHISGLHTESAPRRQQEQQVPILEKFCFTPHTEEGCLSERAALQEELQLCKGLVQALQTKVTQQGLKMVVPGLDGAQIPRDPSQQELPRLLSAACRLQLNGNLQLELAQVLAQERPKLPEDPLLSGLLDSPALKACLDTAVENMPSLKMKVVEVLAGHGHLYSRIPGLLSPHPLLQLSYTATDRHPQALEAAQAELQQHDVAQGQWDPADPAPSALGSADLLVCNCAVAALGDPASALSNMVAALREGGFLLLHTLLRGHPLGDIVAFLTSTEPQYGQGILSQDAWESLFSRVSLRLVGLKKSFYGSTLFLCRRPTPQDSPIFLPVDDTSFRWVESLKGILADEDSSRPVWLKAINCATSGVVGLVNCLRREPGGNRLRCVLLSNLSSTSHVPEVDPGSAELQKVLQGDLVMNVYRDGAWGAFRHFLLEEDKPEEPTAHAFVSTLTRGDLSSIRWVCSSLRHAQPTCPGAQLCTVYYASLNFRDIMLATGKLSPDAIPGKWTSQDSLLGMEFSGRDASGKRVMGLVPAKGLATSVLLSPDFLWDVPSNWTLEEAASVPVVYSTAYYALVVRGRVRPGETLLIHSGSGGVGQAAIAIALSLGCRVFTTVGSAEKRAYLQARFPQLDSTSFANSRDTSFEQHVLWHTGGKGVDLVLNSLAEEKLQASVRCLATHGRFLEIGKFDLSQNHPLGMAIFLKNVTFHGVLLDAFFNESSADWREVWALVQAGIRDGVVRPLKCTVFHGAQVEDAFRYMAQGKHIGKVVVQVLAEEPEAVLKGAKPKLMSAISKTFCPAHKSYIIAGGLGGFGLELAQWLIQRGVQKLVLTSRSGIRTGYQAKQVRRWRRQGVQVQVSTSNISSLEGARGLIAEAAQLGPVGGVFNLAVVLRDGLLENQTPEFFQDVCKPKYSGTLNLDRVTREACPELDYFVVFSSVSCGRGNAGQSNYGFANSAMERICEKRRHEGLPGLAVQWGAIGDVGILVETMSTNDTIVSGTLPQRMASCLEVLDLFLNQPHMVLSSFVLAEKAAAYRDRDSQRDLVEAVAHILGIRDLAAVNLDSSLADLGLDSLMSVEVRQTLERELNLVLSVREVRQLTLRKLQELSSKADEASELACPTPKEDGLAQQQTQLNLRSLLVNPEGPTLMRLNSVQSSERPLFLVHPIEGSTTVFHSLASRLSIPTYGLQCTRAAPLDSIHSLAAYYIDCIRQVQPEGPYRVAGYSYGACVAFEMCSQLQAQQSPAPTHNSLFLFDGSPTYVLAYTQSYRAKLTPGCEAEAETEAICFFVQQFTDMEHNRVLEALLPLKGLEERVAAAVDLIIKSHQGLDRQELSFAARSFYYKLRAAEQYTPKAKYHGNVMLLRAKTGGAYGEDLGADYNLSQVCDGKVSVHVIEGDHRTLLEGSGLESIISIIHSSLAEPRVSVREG
UniProt P26885: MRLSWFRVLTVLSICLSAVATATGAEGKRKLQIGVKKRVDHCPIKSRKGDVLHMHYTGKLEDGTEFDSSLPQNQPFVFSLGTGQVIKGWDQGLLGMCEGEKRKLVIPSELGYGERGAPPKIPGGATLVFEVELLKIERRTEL
UniProt O95466, whole entry, looked up: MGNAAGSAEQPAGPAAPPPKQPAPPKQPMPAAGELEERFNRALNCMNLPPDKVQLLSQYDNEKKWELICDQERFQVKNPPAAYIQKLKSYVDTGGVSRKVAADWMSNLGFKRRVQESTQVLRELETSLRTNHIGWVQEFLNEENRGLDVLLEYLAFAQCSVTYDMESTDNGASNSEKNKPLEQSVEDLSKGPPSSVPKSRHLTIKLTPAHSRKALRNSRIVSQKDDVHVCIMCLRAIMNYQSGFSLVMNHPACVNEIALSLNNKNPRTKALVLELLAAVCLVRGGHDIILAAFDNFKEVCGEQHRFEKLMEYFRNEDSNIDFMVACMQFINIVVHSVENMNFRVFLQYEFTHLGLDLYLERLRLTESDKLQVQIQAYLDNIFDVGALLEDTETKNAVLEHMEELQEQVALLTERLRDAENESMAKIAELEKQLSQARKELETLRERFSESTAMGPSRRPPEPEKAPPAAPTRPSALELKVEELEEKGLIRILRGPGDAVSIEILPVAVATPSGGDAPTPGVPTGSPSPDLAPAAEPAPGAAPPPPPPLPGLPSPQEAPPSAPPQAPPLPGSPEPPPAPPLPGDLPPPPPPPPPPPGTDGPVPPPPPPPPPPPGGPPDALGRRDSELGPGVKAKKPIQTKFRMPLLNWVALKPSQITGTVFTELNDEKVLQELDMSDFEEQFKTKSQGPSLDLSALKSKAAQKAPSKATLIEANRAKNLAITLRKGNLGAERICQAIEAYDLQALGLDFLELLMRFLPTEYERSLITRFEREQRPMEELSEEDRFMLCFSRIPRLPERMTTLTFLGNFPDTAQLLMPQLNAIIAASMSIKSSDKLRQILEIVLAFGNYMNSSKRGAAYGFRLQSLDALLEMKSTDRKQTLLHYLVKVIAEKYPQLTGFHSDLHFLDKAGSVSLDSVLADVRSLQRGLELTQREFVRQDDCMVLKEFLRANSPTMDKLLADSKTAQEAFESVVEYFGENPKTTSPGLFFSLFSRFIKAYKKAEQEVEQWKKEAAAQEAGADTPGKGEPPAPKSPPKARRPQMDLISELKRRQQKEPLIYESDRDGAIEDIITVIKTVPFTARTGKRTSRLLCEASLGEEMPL
UniProt Q13451: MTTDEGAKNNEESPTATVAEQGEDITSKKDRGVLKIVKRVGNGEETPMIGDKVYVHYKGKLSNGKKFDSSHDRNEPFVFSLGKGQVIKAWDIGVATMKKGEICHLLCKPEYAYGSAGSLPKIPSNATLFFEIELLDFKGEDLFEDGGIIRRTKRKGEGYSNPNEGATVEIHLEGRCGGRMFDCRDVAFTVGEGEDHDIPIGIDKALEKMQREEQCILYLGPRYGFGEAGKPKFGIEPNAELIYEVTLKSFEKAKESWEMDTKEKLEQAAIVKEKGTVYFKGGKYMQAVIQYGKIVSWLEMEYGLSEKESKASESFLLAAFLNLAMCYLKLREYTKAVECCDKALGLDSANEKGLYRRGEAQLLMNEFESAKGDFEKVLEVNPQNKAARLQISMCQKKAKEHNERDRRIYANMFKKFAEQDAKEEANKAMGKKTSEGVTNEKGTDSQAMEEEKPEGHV
UniProt P22570: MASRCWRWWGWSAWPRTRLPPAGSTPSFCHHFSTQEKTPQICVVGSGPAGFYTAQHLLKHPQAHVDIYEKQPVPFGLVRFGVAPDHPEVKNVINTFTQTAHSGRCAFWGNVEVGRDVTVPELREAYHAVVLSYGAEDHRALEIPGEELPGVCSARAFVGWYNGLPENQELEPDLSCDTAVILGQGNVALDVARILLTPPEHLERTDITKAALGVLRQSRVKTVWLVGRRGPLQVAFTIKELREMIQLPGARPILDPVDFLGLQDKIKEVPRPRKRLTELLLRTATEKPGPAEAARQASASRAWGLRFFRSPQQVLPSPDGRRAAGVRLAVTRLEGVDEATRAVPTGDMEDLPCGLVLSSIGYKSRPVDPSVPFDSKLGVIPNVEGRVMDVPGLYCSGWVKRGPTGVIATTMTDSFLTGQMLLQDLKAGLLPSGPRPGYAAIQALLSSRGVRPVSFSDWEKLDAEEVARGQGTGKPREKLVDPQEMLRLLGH
UniProt Q9UK99: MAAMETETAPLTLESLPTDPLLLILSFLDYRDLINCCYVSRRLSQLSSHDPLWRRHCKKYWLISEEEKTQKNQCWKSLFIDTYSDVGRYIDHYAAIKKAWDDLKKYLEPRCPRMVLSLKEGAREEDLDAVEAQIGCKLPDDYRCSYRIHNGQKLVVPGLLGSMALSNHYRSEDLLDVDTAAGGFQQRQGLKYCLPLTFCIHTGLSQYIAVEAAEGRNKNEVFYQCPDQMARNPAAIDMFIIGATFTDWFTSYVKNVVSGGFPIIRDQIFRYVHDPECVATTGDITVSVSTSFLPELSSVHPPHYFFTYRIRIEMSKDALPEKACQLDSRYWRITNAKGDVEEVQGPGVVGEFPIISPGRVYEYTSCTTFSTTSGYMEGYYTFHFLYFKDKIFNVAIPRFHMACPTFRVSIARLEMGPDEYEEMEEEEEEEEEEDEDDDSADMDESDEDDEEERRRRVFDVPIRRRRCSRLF

Compound: Cn1cc(CNCC2CCN(c3ncc(C(=O)NO)cn3)CC2)c2ccccc21 [quisinostat]
Test: log2 fold change, soluble protein after heating vs DMSO (PISA); higher = thermal stabilisation; K562 lysate, 10 uM; active = over 0.2 and 3.5 SD of the protein, either way, in both replicates (recomputed)
In short: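 Log-two fold change in thermal stability relative to solvent controls is reported from duplicates. For each sample, crude K562 extract from dounce-homogenised pellets in PBS pH 7.4 with 1 mM MgCl2, at 1 mg/mL protein, was treated with 10 μM compound for 30 min. Aliquots heated for 3 min across 48°C-58°C were pooled, brought to 0.5% NP-40 at 4°C and cleared at 21,000xg for 90 min. The supernatant was quantified by TMTpro 16plex LC-MS/MS with channel sums equalised.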

log2 fold change, inactive:
FKBPL (UniProt Q9UIM3) -0.023
FAR1 (UniProt Q8WVX9) 0.03
FLII (UniProt Q13045) -0.049
FAU (UniProt E9PR30) 0.002
FGFR1OP (UniProt O95684) -0.043
FNTB (UniProt P49356) -0.002
FBXO6 (UniProt Q9NRD1) 0.041
FGD6 (UniProt Q6ZV73) -0.105
FLAD1 (UniProt Q8NFF5) -0.129
FLNC (UniProt Q14315) 0.003
FAM8A1 (UniProt Q9UBU6) -0.008
FBXW9 (UniProt Q5XUX1) -0.239
FAM98C (UniProt Q17RN3) -0.183
FIBP (UniProt O43427) 0.019
FBXL12 (UniProt Q9NXK8) 0.063
FBLL1 (UniProt A6NHQ2) -0.07
FN1 (UniProt P02751) -0.018
FECH isoform 2 (UniProt P22830) 0.333
FAM98A (UniProt Q8NCA5) -0.042
FASN (UniProt P49327) -0.004
FKBP2 (UniProt P26885) -0.06
FMNL1 isoform 3 (UniProt O95466) -0.047
FKBP8 isoform 2 (UniProt Q14318) -0.21
FBXL18 isoform 4 (UniProt Q96ME1) 0.009
FKBP5 (UniProt Q13451) -0.043
FDXR isoform 7 (UniProt P22570) 0.007
FLNB isoform 8 (UniProt O75369) -0.006
FBXL8 (UniProt Q96CD0) 0.059
FERMT3 (UniProt Q86UX7) -0.016
FNBP1L (UniProt Q5T0N5) -0.068
FBXO3 (UniProt Q9UK99) 0.015
FEZ2 isoform 2 (UniProt Q9UHY8) -0.05
FLCN (UniProt Q8NFG4) -0.049

For convenience, some entries already given:
log2 fold change, inactive:
FLII (UniProt Q13045) -0.049
FAU (UniProt E9PR30) 0.002
